Results are given in words; binding and its absence hold for the method and conditions named. Some binding calls cover weakened binding; strength is not graded here.
Molecular target: T1, C2H2 Zinc finger protein Ken (Drosophila) (UniProt O77459)
T1 sequence: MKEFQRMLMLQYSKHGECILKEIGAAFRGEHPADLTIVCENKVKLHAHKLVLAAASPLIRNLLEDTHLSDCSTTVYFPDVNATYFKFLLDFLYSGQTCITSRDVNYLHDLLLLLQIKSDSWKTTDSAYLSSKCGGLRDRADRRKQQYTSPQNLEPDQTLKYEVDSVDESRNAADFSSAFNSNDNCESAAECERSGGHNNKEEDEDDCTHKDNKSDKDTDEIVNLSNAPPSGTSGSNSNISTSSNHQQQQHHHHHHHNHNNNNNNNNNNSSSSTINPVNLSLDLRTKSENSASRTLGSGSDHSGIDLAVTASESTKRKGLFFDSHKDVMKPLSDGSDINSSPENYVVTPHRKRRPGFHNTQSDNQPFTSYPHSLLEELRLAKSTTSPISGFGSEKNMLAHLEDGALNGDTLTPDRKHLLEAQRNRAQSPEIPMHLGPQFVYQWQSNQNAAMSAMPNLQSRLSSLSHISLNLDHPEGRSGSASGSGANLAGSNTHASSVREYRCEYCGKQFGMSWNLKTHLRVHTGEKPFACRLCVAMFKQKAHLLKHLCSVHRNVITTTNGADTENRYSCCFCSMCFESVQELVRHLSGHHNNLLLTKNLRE
Test: two-hybrid; yeast two-hybrid analysis; bait and prey not told (Figure S5B and not shown)

B1: Lolal (protein, UniProt Q7KRI2 1-127)
chain: MMSSDQQFFLKWNDFQTNMVTSFRHLRDEKSFTDVTLACEGQTCKAHKMVLSACSPYFKALLEENPSKHPIIILKDVSYIHLQAILEFMYAGEVNVSQEQLPAFLKTADRLKVKGLAETPSSIKREG
In the case of B1, the binding is reported as “binds”.
